Results are given in words; binding and its absence hold for the method and conditions named. Binding seen in cells or lysates may run through a third protein. Some entries that bind do so weakly or less than the wild type. For some of these results: Where a sequence is shown, tags or fusion partners need not be part of it.
Tests used:
[1] = target: Flag-STAT3 (signal transducer and activator of transcription 3), wild type (human) (UniProt P40763); assay: co-IP; 293T cells transfected with the indicated tagged vectors; whole-cell lysates precipitated with Flag, HA or Myc antibody on Protein A/G beads, Western blot; in some panels IL6 (10 ng mL^-1, 2 h) before harvest
[2] = target: STAT3 K4Q (SH2 domain acetylation mimetic) (human) (UniProt P40763); assay: as above
[3] = target: STAT3 K4R (SH2 domain non-acetylation mutant) (human) (UniProt P40763); assay: as above
[4] = target: STAT3 YS2A (Y705A and S727A double non-phosphorylation mutant) (human) (UniProt P40763); assay: as above
[5] = target: STAT3 YS2D (phosphorylation mimic, Y705 and S727 to aspartate) (human) (UniProt P40763); assay: as above
[6] = target: STAT3-EGFP (FRET fusion) (human) (UniProt P40763); assay: FRET or BRET; spectral FRET in U251 cells, EGFP donor (488 nm) and DsRed acceptor (565 nm), imaged after 24 h; for the inhibition ectopic SHF-expressing stable U251 cells
[7] = target: Flag-STAT3, ectopic in GBM cells (human) (UniProt P40763); assay: co-IP; GBM cells (U87, U251) with stable ectopic SHF-mCherry or control; endogenous proteins or infected Flag-STAT3; whole-cell lysates, Protein A/G beads, Western blot; in one panel p300 siRNA
[8] = target: endogenous STAT1 of GBM cells (human (endogenous in U87 and U251)) (UniProt P42224); assay: as above
[9] = target: endogenous STAT3 of GBM cells (human (endogenous in U87 and U251)) (UniProt P40763); assay: as above
[10] = target: STAT3-nEGFP (BiFC fusion) (human) (UniProt P40763); assay: split reporter; BiFC in U251 cells transfected with STAT3-nEGFP and STAT3-cEGFP or SHF-cEGFP for 16 h, fixed, confocal microscope
[11] = target: endogenous STAT3 of GBM cells (human (endogenous in U87 and U251)), P40763; assay: co-IP; GBM cells (U87, U251) with stable ectopic SHF-mCherry or control; endogenous proteins or infected Flag-STAT3; whole-cell lysates, Protein A/G beads, Western blot; in one panel p300 siRNA; conditions: remark: other sources report otherwise

Chains of the proteins cited; added tags and fusions are not shown. Lines headed by an entry give the natural chain unless they say otherwise; changes in a name come on top. A line that says so, or that is headed by a name, gives the form on record, which may keep a tag or linker.
UniProt P40763: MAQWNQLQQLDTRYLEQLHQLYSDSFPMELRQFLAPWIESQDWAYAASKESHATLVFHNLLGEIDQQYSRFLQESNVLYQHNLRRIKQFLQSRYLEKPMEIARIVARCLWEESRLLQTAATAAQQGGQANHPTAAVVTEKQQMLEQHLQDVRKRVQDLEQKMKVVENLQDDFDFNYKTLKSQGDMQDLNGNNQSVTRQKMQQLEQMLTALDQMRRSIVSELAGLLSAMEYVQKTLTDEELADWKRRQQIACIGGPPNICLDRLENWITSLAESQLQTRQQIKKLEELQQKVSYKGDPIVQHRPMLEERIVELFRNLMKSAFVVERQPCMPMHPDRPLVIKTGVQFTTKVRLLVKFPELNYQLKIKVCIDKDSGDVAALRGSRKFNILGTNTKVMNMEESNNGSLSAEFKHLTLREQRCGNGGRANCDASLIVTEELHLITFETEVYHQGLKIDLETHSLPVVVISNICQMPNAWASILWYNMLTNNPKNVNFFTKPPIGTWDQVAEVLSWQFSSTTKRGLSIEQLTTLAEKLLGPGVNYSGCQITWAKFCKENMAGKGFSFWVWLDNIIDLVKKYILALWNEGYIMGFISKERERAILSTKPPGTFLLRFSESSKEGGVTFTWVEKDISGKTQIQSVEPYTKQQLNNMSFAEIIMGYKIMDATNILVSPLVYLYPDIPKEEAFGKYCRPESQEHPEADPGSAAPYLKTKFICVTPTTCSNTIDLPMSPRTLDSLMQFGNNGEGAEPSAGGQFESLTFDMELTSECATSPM
STAT3 K4Q (SH2 domain acetylation mimetic) (P40763, form named): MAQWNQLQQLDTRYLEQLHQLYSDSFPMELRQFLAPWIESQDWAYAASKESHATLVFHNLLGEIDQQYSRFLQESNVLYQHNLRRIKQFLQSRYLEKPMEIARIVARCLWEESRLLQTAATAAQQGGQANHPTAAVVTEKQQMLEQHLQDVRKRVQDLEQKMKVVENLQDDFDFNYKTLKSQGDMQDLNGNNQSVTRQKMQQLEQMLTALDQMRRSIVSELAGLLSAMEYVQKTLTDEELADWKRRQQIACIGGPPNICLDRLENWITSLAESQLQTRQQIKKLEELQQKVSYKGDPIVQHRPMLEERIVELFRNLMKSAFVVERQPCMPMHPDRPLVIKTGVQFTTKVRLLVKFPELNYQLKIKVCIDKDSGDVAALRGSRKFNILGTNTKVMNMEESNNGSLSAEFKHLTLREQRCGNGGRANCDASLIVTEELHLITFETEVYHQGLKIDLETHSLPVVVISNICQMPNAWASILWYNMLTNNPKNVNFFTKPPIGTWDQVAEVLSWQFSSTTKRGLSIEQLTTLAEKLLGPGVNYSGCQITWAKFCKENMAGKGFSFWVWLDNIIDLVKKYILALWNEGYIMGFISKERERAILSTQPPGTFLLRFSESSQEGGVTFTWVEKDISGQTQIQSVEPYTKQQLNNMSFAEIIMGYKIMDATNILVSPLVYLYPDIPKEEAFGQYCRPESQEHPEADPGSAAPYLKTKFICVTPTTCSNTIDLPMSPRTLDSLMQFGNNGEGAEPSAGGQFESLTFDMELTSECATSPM
STAT3 K4R (SH2 domain non-acetylation mutant) (P40763, form named): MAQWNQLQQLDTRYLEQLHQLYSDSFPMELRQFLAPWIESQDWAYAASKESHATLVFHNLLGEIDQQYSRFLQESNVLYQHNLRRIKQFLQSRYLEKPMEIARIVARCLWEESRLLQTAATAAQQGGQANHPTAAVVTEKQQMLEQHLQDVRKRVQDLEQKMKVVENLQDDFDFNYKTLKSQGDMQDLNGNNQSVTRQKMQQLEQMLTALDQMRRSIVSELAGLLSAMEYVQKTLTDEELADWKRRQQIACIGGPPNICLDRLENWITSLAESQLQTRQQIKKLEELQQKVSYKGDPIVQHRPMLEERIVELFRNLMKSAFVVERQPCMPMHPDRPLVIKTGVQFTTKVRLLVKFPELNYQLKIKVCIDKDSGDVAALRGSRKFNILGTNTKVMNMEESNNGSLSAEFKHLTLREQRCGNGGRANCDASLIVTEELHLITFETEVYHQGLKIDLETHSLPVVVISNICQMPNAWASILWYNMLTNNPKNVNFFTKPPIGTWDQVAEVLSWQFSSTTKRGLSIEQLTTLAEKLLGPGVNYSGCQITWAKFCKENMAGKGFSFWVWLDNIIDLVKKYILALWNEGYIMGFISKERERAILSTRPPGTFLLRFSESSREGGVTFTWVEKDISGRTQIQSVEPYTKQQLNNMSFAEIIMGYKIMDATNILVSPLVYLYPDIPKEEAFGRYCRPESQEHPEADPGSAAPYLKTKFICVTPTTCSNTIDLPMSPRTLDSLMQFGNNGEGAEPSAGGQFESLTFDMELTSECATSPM
STAT3 YS2D (phosphorylation mimic, Y705 and S727 to aspartate) (P40763, form named): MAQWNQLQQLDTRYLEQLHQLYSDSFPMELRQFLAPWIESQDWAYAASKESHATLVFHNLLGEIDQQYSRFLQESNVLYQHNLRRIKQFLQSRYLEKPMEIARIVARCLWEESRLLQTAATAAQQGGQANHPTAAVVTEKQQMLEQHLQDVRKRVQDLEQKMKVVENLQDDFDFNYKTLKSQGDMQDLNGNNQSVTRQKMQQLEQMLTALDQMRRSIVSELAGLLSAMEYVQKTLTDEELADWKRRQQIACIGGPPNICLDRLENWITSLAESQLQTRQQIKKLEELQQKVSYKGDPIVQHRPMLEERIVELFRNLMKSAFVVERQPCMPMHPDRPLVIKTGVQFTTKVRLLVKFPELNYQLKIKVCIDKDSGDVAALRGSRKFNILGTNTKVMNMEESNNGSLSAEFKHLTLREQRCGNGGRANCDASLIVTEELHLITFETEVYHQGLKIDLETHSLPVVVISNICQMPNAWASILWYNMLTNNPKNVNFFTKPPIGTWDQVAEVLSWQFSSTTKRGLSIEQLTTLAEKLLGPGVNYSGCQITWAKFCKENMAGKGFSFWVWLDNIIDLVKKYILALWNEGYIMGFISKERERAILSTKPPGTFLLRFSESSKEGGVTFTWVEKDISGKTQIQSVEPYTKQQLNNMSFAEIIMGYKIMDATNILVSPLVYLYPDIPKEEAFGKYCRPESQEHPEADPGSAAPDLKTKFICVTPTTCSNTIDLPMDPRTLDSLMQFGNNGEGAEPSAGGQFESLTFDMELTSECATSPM

B1: HA-SHF (SH2 domain-containing adapter protein F) (protein, UniProt Q7M4L6 1-423)
chain: MQQEGGPVRSAPCRTGTLEGSRQGSPGHRKRASPKGSLSSAQPHSWMLTPSPLNSHCAHREPISSSPQPVANGPKQKKKSNWRSTTRLRIIRLRDRLEPRPLAILEDYADPFDVQETGEGSAGASGAPEKVPENDGYMEPYEAQKMMAEIRGSKETATQPLPLYDTPYEPEEDGATAEGEGAPWPRESRLPEDDERPPEEYDQPWEWKKERISKAFAVDIKVIKDLPWPPPVGQLDSSPSLPDGDRDISGPASPLPEPSLEDSSAQFEGPEKSCLSPGREEKGRLPPRLSAGNPKSAKPLSMEPSSPLGEWTDPALPLENQVWYHGAISRTDAENLLRLCKEASYLVRNSETSKNDFSLSLKSSQGFMHMKLSRTKEHKYVLGQNSPPFSSVPEIVHHYASRKLPIKGAEHMSLLYPVAIRTL
With B1 the binding [1] was “binds”, the binding [2] was “binds” and the binding [3] was “binds weakly”. The binding [4] was “binds” and the binding [5] was “binds”.

B2: SHF-mCherry (ectopic SHF in GBM cells) (protein, UniProt Q7M4L6 1-423)
chain: MQQEGGPVRSAPCRTGTLEGSRQGSPGHRKRASPKGSLSSAQPHSWMLTPSPLNSHCAHREPISSSPQPVANGPKQKKKSNWRSTTRLRIIRLRDRLEPRPLAILEDYADPFDVQETGEGSAGASGAPEKVPENDGYMEPYEAQKMMAEIRGSKETATQPLPLYDTPYEPEEDGATAEGEGAPWPRESRLPEDDERPPEEYDQPWEWKKERISKAFAVDIKVIKDLPWPPPVGQLDSSPSLPDGDRDISGPASPLPEPSLEDSSAQFEGPEKSCLSPGREEKGRLPPRLSAGNPKSAKPLSMEPSSPLGEWTDPALPLENQVWYHGAISRTDAENLLRLCKEASYLVRNSETSKNDFSLSLKSSQGFMHMKLSRTKEHKYVLGQNSPPFSSVPEIVHHYASRKLPIKGAEHMSLLYPVAIRTL
For B2, the binding [6] was “binds”, the binding [7] was “binds” and the binding [8] was “binds”. For the same binder, the binding [9] was “binds”.

B3: SHF SH2 construct (SH2) (domain or fragment, UniProt Q7M4L6 323-418)
chain: WYHGAISRTDAENLLRLCKEASYLVRNSETSKNDFSLSLKSSQGFMHMKLSRTKEHKYVLGQNSPPFSSVPEIVHHYASRKLPIKGAEHMSLLYPV
For B3, the binding [1] was “binds”.

B4: SHF-cEGFP (BiFC fusion) (protein, UniProt Q7M4L6 1-423)
chain: MQQEGGPVRSAPCRTGTLEGSRQGSPGHRKRASPKGSLSSAQPHSWMLTPSPLNSHCAHREPISSSPQPVANGPKQKKKSNWRSTTRLRIIRLRDRLEPRPLAILEDYADPFDVQETGEGSAGASGAPEKVPENDGYMEPYEAQKMMAEIRGSKETATQPLPLYDTPYEPEEDGATAEGEGAPWPRESRLPEDDERPPEEYDQPWEWKKERISKAFAVDIKVIKDLPWPPPVGQLDSSPSLPDGDRDISGPASPLPEPSLEDSSAQFEGPEKSCLSPGREEKGRLPPRLSAGNPKSAKPLSMEPSSPLGEWTDPALPLENQVWYHGAISRTDAENLLRLCKEASYLVRNSETSKNDFSLSLKSSQGFMHMKLSRTKEHKYVLGQNSPPFSSVPEIVHHYASRKLPIKGAEHMSLLYPVAIRTL
For B4, the binding [10] was “binds”.

B5: SHF-DsRed (FRET fusion) (protein, UniProt Q7M4L6 1-423)
chain: MQQEGGPVRSAPCRTGTLEGSRQGSPGHRKRASPKGSLSSAQPHSWMLTPSPLNSHCAHREPISSSPQPVANGPKQKKKSNWRSTTRLRIIRLRDRLEPRPLAILEDYADPFDVQETGEGSAGASGAPEKVPENDGYMEPYEAQKMMAEIRGSKETATQPLPLYDTPYEPEEDGATAEGEGAPWPRESRLPEDDERPPEEYDQPWEWKKERISKAFAVDIKVIKDLPWPPPVGQLDSSPSLPDGDRDISGPASPLPEPSLEDSSAQFEGPEKSCLSPGREEKGRLPPRLSAGNPKSAKPLSMEPSSPLGEWTDPALPLENQVWYHGAISRTDAENLLRLCKEASYLVRNSETSKNDFSLSLKSSQGFMHMKLSRTKEHKYVLGQNSPPFSSVPEIVHHYASRKLPIKGAEHMSLLYPVAIRTL
With B5 the binding [6] was “binds”.

B6: endogenous STAT1 of GBM cells, P42224 1-750 (protein)
chain: MSQWYELQQLDSKFLEQVHQLYDDSFPMEIRQYLAQWLEKQDWEHAANDVSFATIRFHDLLSQLDDQYSRFSLENNFLLQHNIRKSKRNLQDNFQEDPIQMSMIIYSCLKEERKILENAQRFNQAQSGNIQSTVMLDKQKELDSKVRNVKDKVMCIEHEIKSLEDLQDEYDFKCKTLQNREHETNGVAKSDQKQEQLLLKKMYLMLDNKRKEVVHKIIELLNVTELTQNALINDELVEWKRRQQSACIGGPPNACLDQLQNWFTIVAESLQQVRQQLKKLEELEQKYTYEHDPITKNKQVLWDRTFSLFQQLIQSSFVVERQPCMPTHPQRPLVLKTGVQFTVKLRLLVKLQELNYNLKVKVLFDKDVNERNTVKGFRKFNILGTHTKVMNMEESTNGSLAAEFRHLQLKEQKNAGTRTNEGPLIVTEELHSLSFETQLCQPGLVIDLETTSLPVVVISNVSQLPSGWASILWYNMLVAEPRNLSFFLTPPCARWAQLSEVLSWQFSSVTKRGLNVDQLNMLGEKLLGPNASPDGLIPWTRFCKENINDKNFPFWLWIESILELIKKHLLPLWNDGCIMGFISKERERALLKDQQPGTFLLRFSESSREGAITFTWVERSQNGGEPDFHAVEPYTKKELSAVTFPDIIRNYKVMAAENIPENPLKYLYPNIDKDHAFGKYYSRPKEAPEPMELDGPKGTGYIKTELISVSEVHPSRLQTTDNLLPMSPEEFDEVSRIVGSVEFDSMMNTV
B6 was tested, and the binding [11] was “no binding”.
